# Results published in the supplement of paper PMC8728848.
# Some of the results follow.
# B1: Pwp1 (Candida glabrata) (protein)
# chain: MGSSHHHHHHSSGLVPRGSHMASANPISITNVCQFPDNWARTAGFQATTVRLGLTIASNTYKELLNYPGLFNFATQKATVTQPNFSISGFPFFTGLYGLTVWPINLLVELQGYFVPPESGNYTFTLQGSDDAAILFFANPSTFACGSQNDWPQPREADITVTDTLVPSRTLYLVKGVAYPIRIAYYNGSGDGKLNVSFKDPSGTTHTDWKGYVWQYSNTCSTCTYT
# Assays:
# Assay in all cases: glycan array binding signal (z-score within array); higher = stronger binding
# Details in all cases: glycan notation: IUPAC condensed, linker removed
# [1] = target: Fuc(a1-3)[Gal3S(b1-4)]GlcNAc6S
# In short: (§1)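 Glycan array data were curated from 3228 arrays in the Consortium for Functional Glycomics database and kept only where the protein sequence was available. Glycan names were converted to IUPAC-condensed notation, and columns mapping to the same glycan were averaged. The binding signal is a within-array Z-score, averaged across arrays of the same protein sequence at different concentrations or buffers and across linkers. Negative Z-scores can be read as non-binding.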
# [2] = target: Fuc(a1-3)[GalNAc(b1-4)]GlcNAc
# In short: as §1
# [3] = target: Fuc(a1-3)[GalNAc(b1-4)]GlcNAc6S
# In short: as §1
# [4] = target: Fuc(a1-4)GlcNAc
# In short: as §1
# [5] = target: Fuc(b1-3)GlcNAc
# In short: as §1
# [6] = target: Gal(a1-2)Gal
# In short: as §1
# [7] = target: Gal(a1-3)Gal
# In short: as §1
# [8] = target: Gal(a1-3)Gal(b1-3)GlcNAc
# In short: as §1
# [9] = target: Gal(a1-3)Gal(b1-3)GlcNAc(b1-2)Man
# In short: as §1
# [10] = target: Gal(a1-3)Gal(b1-3)GlcNAc(b1-2)Man(a1-3)[Gal(a1-3)Gal(b1-3)GlcNAc(b1-2)Man(a1-6)]Man(b1-4)GlcNAc(b1-4)GlcNAc
# In short: as §1
# [11] = target: Gal(a1-3)Gal(b1-3)GlcNAc(b1-3)GalNAc
# In short: as §1
# [12] = target: Gal(a1-3)Gal(b1-3)GlcNAc(b1-6)GalNAc
# In short: as §1
# [13] = target: Gal(a1-3)Gal(b1-3)[Fuc(a1-4)]GlcNAc(b1-2)Man(a1-3)[Gal(a1-3)Gal(b1-3)[Fuc(a1-4)]GlcNAc(b1-2)Man(a1-6)]Man(b1-4)GlcNAc(b1-4)GlcNAc
# In short: as §1
# [14] = target: Gal(a1-3)Gal(b1-4)Glc
# In short: as §1
# [15] = target: Gal(a1-3)Gal(b1-4)GlcNAc
# In short: as §1
# [16] = target: Gal(a1-3)Gal(b1-4)GlcNAc(b1-2)Man
# In short: as §1
# [17] = target: Gal(a1-3)Gal(b1-4)GlcNAc(b1-2)Man(a1-3)[Gal(a1-3)Gal(b1-4)GlcNAc(b1-2)Man(a1-6)]Man(b1-4)GlcNAc(b1-4)GlcNAc
# In short: as §1
# [18] = target: Gal(a1-3)Gal(b1-4)GlcNAc(b1-3)GalNAc
# In short: as §1
# [19] = target: Gal(a1-3)Gal(b1-4)GlcNAc(b1-6)GalNAc
# In short: as §1
# [20] = target: Gal(a1-3)Gal(b1-4)[Fuc(a1-3)]GlcNAc
# In short: as §1
# [21] = target: Gal(a1-3)Gal(b1-4)[Fuc(a1-3)]GlcNAc(b1-2)Man(a1-3)[Gal(a1-3)Gal(b1-4)[Fuc(a1-3)]GlcNAc(b1-2)Man(a1-6)]Man(b1-4)GlcNAc(b1-4)GlcNAc
# In short: as §1
# [22] = target: Gal(a1-3)GalNAc
# In short: as §1
# [23] = target: Gal(a1-3)[Gal(a1-4)]Gal(b1-4)GlcNAc
# In short: as §1
# [24] = target: Gal(a1-4)Gal(b1-3)GlcNAc(b1-2)Man(a1-3)[Gal(a1-4)Gal(b1-3)GlcNAc(b1-2)Man(a1-6)]Man(b1-4)GlcNAc(b1-4)GlcNAc
# In short: as §1
# [25] = target: Gal(a1-4)Gal(b1-4)Glc
# In short: as §1
# [26] = target: Gal(a1-4)Gal(b1-4)GlcNAc
# In short: as §1
# [27] = target: Gal(a1-4)Gal(b1-4)GlcNAc(b1-2)Man(a1-3)[Gal(a1-4)Gal(b1-4)GlcNAc(b1-2)Man(a1-6)]Man(b1-4)GlcNAc(b1-4)GlcNAc
# In short: as §1
# [28] = target: Gal(a1-4)Gal(b1-4)GlcNAc(b1-3)Gal(b1-4)Glc
# In short: as §1
# [29] = target: Gal(a1-4)GlcNAc
# In short: as §1
# [30] = target: Gal(a1-6)Glc
# In short: as §1
# [31] = target: Gal(b1-2)Gal
# In short: as §1
# [32] = target: Gal(b1-3)Gal
# In short: as §1
# [33] = target: Gal(b1-3)Gal(b1-4)GlcNAc
# In short: as §1
# [34] = target: Gal(b1-3)GalNAc
# In short: as §1
# [35] = target: Gal(b1-3)GalNAc(a1-3)[Fuc(a1-2)]Gal(b1-4)Glc
# In short: as §1
# [36] = target: Gal(b1-3)GalNAc(a1-3)[Fuc(a1-2)]Gal(b1-4)GlcNAc
# In short: as §1
# [37] = target: Gal(b1-3)GalNAc(b1-3)Gal
# In short: as §1
# [38] = target: Gal(b1-3)GalNAc(b1-3)Gal(a1-4)Gal(b1-4)Glc
# In short: as §1
# [39] = target: Gal(b1-3)GalNAc(b1-4)Gal(b1-4)Glc
# In short: as §1
# [40] = target: Gal(b1-3)GalNAc(b1-4)[Neu5Ac(a2-3)]Gal(b1-4)Glc
# In short: as §1
# [41] = target: Gal(b1-3)GlcNAc
# In short: as §1
# [42] = target: Gal(b1-3)GlcNAc(a1-3)Gal(b1-4)GlcNAc
# In short: as §1
# [43] = target: Gal(b1-3)GlcNAc(a1-6)Gal(b1-4)GlcNAc
# In short: as §1
# [44] = target: Gal(b1-3)GlcNAc(b1-2)Man
# In short: as §1
# [45] = target: Gal(b1-3)GlcNAc(b1-2)Man(a1-3)[Gal(b1-3)GlcNAc(b1-2)Man(a1-6)]Man(b1-4)GlcNAc(b1-4)GlcNAc
# In short: as §1
binder,measurement,setting,value
B1,glycan array binding signal (z-score),[1],1.94
same,glycan array binding signal (z-score),[2],-1.67
same,glycan array binding signal (z-score),[3],-0.715
same,glycan array binding signal (z-score),[4],-1.21
same,glycan array binding signal (z-score),[5],-1.68
same,glycan array binding signal (z-score),[6],0.794
same,glycan array binding signal (z-score),[7],0.153
same,glycan array binding signal (z-score),[8],0.967
same,glycan array binding signal (z-score),[9],-0.583
same,glycan array binding signal (z-score),[10],-1.23
same,glycan array binding signal (z-score),[11],0.151
same,glycan array binding signal (z-score),[12],-1.51
same,glycan array binding signal (z-score),[13],-0.466
same,glycan array binding signal (z-score),[14],-0.08
same,glycan array binding signal (z-score),[15],0.472
same,glycan array binding signal (z-score),[16],0.772
same,glycan array binding signal (z-score),[17],-1.01
same,glycan array binding signal (z-score),[18],-1.48
same,glycan array binding signal (z-score),[19],1.01
same,glycan array binding signal (z-score),[20],1.03
same,glycan array binding signal (z-score),[21],0.68
same,glycan array binding signal (z-score),[22],0.085
same,glycan array binding signal (z-score),[23],-0.59
same,glycan array binding signal (z-score),[24],0.075
same,glycan array binding signal (z-score),[25],-0.356
same,glycan array binding signal (z-score),[26],-0.701
same,glycan array binding signal (z-score),[27],-1.92
same,glycan array binding signal (z-score),[28],0.195
same,glycan array binding signal (z-score),[29],0.974
same,glycan array binding signal (z-score),[30],1.13
same,glycan array binding signal (z-score),[31],0.655
same,glycan array binding signal (z-score),[32],0.861
same,glycan array binding signal (z-score),[33],-0.314
same,glycan array binding signal (z-score),[34],0.164
same,glycan array binding signal (z-score),[35],1.35
same,glycan array binding signal (z-score),[36],-1.15
same,glycan array binding signal (z-score),[37],0.028
same,glycan array binding signal (z-score),[38],-0.874
same,glycan array binding signal (z-score),[39],1.92
same,glycan array binding signal (z-score),[40],-0.763
same,glycan array binding signal (z-score),[41],0.448
same,glycan array binding signal (z-score),[42],0.906
same,glycan array binding signal (z-score),[43],0.385
same,glycan array binding signal (z-score),[44],0.477
same,glycan array binding signal (z-score),[45],-1.52

# Eight entries from above, reformatted:
binder | measurement | setting | value
B1 | glycan array binding signal (z-score) | [26] | -0.701
same | glycan array binding signal (z-score) | [27] | -1.92
same | glycan array binding signal (z-score) | [28] | 0.195
same | glycan array binding signal (z-score) | [29] | 0.974
same | glycan array binding signal (z-score) | [30] | 1.13
same | glycan array binding signal (z-score) | [31] | 0.655
same | glycan array binding signal (z-score) | [32] | 0.861
same | glycan array binding signal (z-score) | [33] | -0.314
